Data from patent publication US20080044413A1.
These are yes or no findings as the source states them, for the method shown. Some binding calls cover weakened binding; strength is not graded here. Blank lines part the entries; values can stand above or below the binder they belong to.

Protein sequences, listed by entry. Tags and fused reporters are not part of them. Lines headed by an entry give the natural chain unless they say otherwise; changes in a name come on top. Residues count along the entry.
UniProt P29317: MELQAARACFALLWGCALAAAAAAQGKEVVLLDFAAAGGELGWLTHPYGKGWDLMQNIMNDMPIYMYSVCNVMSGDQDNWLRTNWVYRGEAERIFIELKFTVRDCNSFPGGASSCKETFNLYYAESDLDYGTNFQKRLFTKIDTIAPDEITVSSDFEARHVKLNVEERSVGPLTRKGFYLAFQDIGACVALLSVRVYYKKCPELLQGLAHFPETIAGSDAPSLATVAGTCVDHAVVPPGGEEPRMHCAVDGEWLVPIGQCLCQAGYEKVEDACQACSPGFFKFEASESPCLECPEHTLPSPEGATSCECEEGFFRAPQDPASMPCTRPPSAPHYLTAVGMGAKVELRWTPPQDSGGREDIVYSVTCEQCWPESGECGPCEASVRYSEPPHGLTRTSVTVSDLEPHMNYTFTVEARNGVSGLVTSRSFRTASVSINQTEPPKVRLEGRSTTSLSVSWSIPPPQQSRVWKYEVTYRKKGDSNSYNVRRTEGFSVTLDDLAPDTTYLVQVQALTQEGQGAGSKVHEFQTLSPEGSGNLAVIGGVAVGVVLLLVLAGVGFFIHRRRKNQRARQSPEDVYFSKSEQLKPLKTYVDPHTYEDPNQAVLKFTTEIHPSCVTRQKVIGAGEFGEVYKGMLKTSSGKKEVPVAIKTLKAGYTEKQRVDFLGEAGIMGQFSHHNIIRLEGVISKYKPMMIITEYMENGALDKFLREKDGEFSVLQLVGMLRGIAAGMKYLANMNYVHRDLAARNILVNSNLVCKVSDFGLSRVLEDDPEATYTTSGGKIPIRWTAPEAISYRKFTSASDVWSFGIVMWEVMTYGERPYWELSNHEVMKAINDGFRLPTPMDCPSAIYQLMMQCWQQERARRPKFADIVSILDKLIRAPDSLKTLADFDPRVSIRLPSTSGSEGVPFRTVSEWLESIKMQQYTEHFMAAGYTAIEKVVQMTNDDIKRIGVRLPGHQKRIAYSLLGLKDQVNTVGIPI
human EphA2: residues 24-976 of P29317
Human EphA2-Fc fusion protein: residues 24-537 of P29317

Columns and labels:
human EphA2 (human) [1] = molecular target: human EphA2 (human) (UniProt P29317); test: immunofluorescence staining, MCF10A cells; at cell-cell contacts
human EphA2 (human) [2] = molecular target: human EphA2 (human) (UniProt P29317); test: flow cytometry on MDA MB231 cells, antibody 10 µg/ml, PE anti-mouse Fc gamma; control: irrelevant antibody of the same isotype [B]
human EphA2 (human) [3] = molecular target: human EphA2 (human) (UniProt P29317); test: flow cytometry of live SW480 cells left after the cytotoxicity assay with T-cells; B233 10 µg/ml, APC anti-mouse IgG; the axis is the dose of EphA2-BiTE [B]
human EphA2 (human) [4] = molecular target: human EphA2 (human) (UniProt P29317); test: immunofluorescence staining, MDA-MB-231 cells; at membrane ruffles
human EphA2 (human) [5] = molecular target: human EphA2 (human) (UniProt P29317); test: flow cytometry, 10 µg/ml, A549 and MDA-MB-231 cells
human EphA2 (human) [6] = molecular target: human EphA2 (human) (UniProt P29317); test: flow cytometry on A549 cells, antibody 10 µg/ml, PE anti-mouse Fc gamma; control: irrelevant antibody of the same isotype [A]
human EphA2 (human) [7] = molecular target: human EphA2 (human) (UniProt P29317); test: immunofluorescence microscopy, MCF-10A and MDA-MB-231 monolayers (data not shown)
[8] = molecular target: Human EphA2-Fc fusion protein (human) (UniProt P29317); test: activity ELISA, scFv supernatants titrated on immobilized human EphA2 (EphA2-Fc coat), linear concentration axis
[9] = molecular target: Human EphA2-Fc fusion protein (human) (UniProt P29317); test: activity ELISA on coated human EphA2-Fc, normalised by quantification ELISA

- binding (human EphA2 (human) [1]): binds
- binding (human EphA2 (human) [2]): binds
- binding (human EphA2 (human) [4]): binds
- binding (human EphA2 (human) [5]): binds
- binding (human EphA2 (human) [6]): binds
B1: anti-EphA2 monoclonal antibody B233 (antibody, V domains shown)
VH: EVKLVESGGGLVQPGGSLSLSCAASGFTFTDYSMNWVRQPPGKALEWLGFIRNKANDYTTEYSASVKGRFTISRDNSQSILYLQMNALRAEDSATYYCVRYPRYHAMDSWGQGTSVTVSS
VL: DIVLTQSPATLSVTPGDSVNLSCRASQSISNNLHWYQQKSHESPRLLIKYVFQSISGIPSRFSGSGSGTDFTLSINSVETEDFGMYFCQQSNSWPLTFGAGTKLELK
- binding (human EphA2 (human) [3]): binds

- binding (human EphA2 (human) [7]): binds
- binding [8]: binds
- binding [9]: binds
B2: VH VL 2E7 scFv (scFv)
scFv: QVQLLESGGGLVQPGGSLRLSCAASGFTFSSYTMSWVRQAPGQALEWMGTISSRGTYTYYPDSVKGRFTISRDNAKNSLYLQMNSLRAEDTAVYYCAREAIFTHWGRGTLVTVSSGGGGSGGGGSGGGGSDIQLTQSPSSLSASVGDRVTITCKASQDINNYGSWYQQKPGQAPRLLIYRANRLVDGVPDRFSGSGYGTDFTLTINNIESEDAAYYFCLKYNRFPYTFGQGTKVEIK
